# The other results are listed elsewhere or left out.
# Tested on: T1, CTL2-GFP (C. trachomatis L2/434/Bu, GFP-expressing)
# T1 construct: L2/434/Bu, GFP-expressing
# Parameters: species or system HeLa; Intracellular C. trachomatis growth in HeLa cells, bulk GFP fluorescence relative to DMSO
# Conditions: bulk GFP, single well; 28.5 h, 10 µM; inhibitor
row,Structure (SMILES),% of control remaining [%]
1,Cc1c(C(=O)Nc2ccc(Cl)cc2)sc2c1C(c1cccnc1)CC(=O)N2 (centres unmarked) [CBK288233],45.701
2,CCOC(=O)Nc1ccc2c(c1)N(C(=O)CN1CCOCC1)c1ccccc1CC2 [CBK261286C],95.6924
3,Cc1nn(CC(=O)OC2CCCCC2)c(=O)c2cc3ccsc3n12 [CBK284058],139.256
4,CCc1nn2c(=O)cc(CNc3ccccc3CN(C)C(C)=O)nc2s1 [CBK305604],103.77
5,Cn1c(=O)c2c(nc(Nc3ccc(Cl)cc3Cl)n2CC(=O)O)n(C)c1=O [CBK286792],128.509
6,CCn1cc(CN2CCN(C(=O)c3csc(C(C)C)c3)CC2)cn1 [CBK282044],129.975
7,C=CCNc1nccnc1-c1cc(OC)c(OC)c(OC)c1 [CBK036872],96.877
8,O=C(Nc1cc(Cl)ccc1C(=O)O)c1ccc2c(c1)C(=O)N(Cc1cccnc1)C2=O [CBK266455],146.645
9,CCOC(=O)N(C)c1c(CC)nc2ccc(C(=O)Nc3cc(-c4ccccc4)ccc3OC)cn12 [CBK145478],141.287
10,CSc1nc(NC(=O)Cc2c[nH]c3ccccc23)cc(N2CCNCC2)n1 [CBK050265T],100
11,OCC1CCN(Cc2ccc(OC3CCCC3)cc2)C1 (centres unmarked) [CBK282929],84.5197
12,O=C1CN(S(=O)(=O)c2ccc(NS(=O)(=O)c3ccc4ccccc4c3)cc2)CC(=O)N1 [CBK262513],122.42
13,Cc1ccc2c(c1)C(c1c[nH]c3ccccc13)(c1c[nH]c3ccccc13)C(=O)N2C [CBK266401],190.239
14,O=C(NCc1ccccc1OC1CCNC1)c1ccc(-c2cccc(C(F)(F)F)c2)o1 (centres unmarked) [CBK034151T],102.468
15,Cc1cc(N2CCC(N3CCN(C)CC3)CC2)nc(N)n1 [CBK167964],117.588
16,O=S(=O)(Nc1ccc(N2CCOCC2)cc1)c1cccc(OC(F)(F)F)c1 [CBK296759],125.242
17,Cc1cc(C)n(CC2CCCCN2Cc2ccccn2)n1 (centres unmarked) [CBK304853],117.924
18,O=C(NC1CCCC1)c1ccc(-n2ccnc2)c(-n2cccc2)c1 [CBK285368],118.893
19,CCOC(=O)[C@H]1CC[C@]2(CC1)CN(C)C(=O)c1ccccc1O2 [CBK284848],93.4923
20,Cc1cccc(NCC(O)Cn2c3ccc(Br)cc3c3cc(Br)ccc32)c1 (centres unmarked) [CBK261419],100.289
21,COc1ccc([C@@H](O)[C@H]2CCCNC2)cc1 [CBK282298],139.141
22,COCc1nnc(Sc2nccnc2NC(C)C)s1 [CBK115204],128.23
23,CC(C)Cn1c(=O)c2c(nc3n2CCS3)n(C)c1=O [CBK307109],123.555
24,O[C@H]1[C@H](NCc2ccccn2)[C@H]2CO[C@H](O2)[C@@H]1N1CCC(Cc2ccccc2)CC1 [CBK288814],121.583
25,COC(=O)c1ccc(OCCn2nc(C)c(C)c(C#N)c2=O)cc1 [CBK305676],144.375
26,Cc1cc(C)n(-c2nc3cc(Cl)ccc3nc2Nc2ccc3c(c2)OCO3)n1 [CBK268380],142.557
27,COc1ccc(C2C(C(C)=O)=C(O)C(=O)N2CCC(=O)O)cc1 (centres unmarked) [CBK263763],110.458

# Another view of part of the listing above.
row | Structure (SMILES) | % of control remaining [%]
6 | CCn1cc(CN2CCN(C(=O)c3csc(C(C)C)c3)CC2)cn1 [CBK282044] | 129.975
7 | C=CCNc1nccnc1-c1cc(OC)c(OC)c(OC)c1 [CBK036872] | 96.877

# (next part)

row,Structure (SMILES),% of control remaining [%]
1,O=C(NC1CCNCC1)c1cc2ccccc2[nH]1 [CBK168609],124.481
2,O=C(CSc1ncccn1)N/N=C/c1ccncc1 [CBK262401],117.959
3,OCCn1ncc2c(NCc3cccc(Cn4ccnc4)c3)ncnc21 [CBK304184],46.0785
4,Cc1cc(C)cc(N(CCC#N)C(=O)CSc2nnc[nH]2)c1 [CBK296955],118.628
5,Cn1cc(CN2CCCN(C(=O)c3cc4ccccc4[nH]3)CC2)cn1 [CBK304920],69.8061
6,CCNc1cc(-c2ccc(OC)cc2)ncn1 [CBK090883],172.478
7,O=c1oc2ccccc2c(NCCN2CCCCC2)c1[N+](=O)[O-] [CBK218805],112.262
8,O=C(Nc1cccc2ccccc12)N1CCC(n2c(=O)[nH]c3ccccc32)CC1 [CBK149858],96.6412
9,CCCC(=O)Nc1sc(C)c(C)c1C(=O)Nc1ccccc1OC [CBK262455],89.9053
10,CC(=O)Nc1nc2ccc(S(=O)(=O)N3CCCC3)cc2s1 [CBK287604],135.649
11,[O-][S+]1c2ccccc2Oc2ccccc21 [CBK027634],136.809
12,Cc1ccc(NC(=O)NC(=O)C2CCN(CCc3ccc(F)cc3)CC2)cc1Cl [CBK035047],128.616
13,CC1(C)NC(=O)N(CC(O)CN2CCCC2)C1=O (centres unmarked) [CBK264558],112.43
14,Fc1cccc(Cl)c1CN1CNC(=S)NC1 [CBK006480],150.953
15,CC(C)c1ccc(OCCN2CCNCC2)cc1 [CBK266024C],121.312
16,CCCCC(=O)Nc1ccc(C(=O)N2CCN(C)CC2)cc1 [CBK304662],113.606
17,O=C1NC(=O)C(CC(=O)N2CCN(Cc3nc4ccccc4s3)CC2)S1 (centres unmarked) [CBK295654],138.268
18,Cc1ccccc1NCC(=O)N/N=C\c1cc(Br)c(O)c(Br)c1 [CBK262120],105.59
19,Cc1cccc(OCCNC(=O)CSc2n[nH]c(=O)n2C2CC2)c1 [CBK295599],120.677
20,CN(C)Cc1ccccc1-n1ncc(-c2ccc(Br)cc2F)n1 [CBK112924],121.53
21,CCc1c(C(=O)Nc2ccc3nc(C)cn3c2)cnc2cc(O)nn12 [CBK291178],115.006
22,COc1ccc2occ(C(=O)c3ccc(N)cc3)c2c1 [CBK111303],117.084
23,CS(=O)(=O)N1CC2(CCN(CCCOc3ccccc3)CC2)c2ccccc21 [CBK115457T],110.498
24,CC1CCc2c(sc3ncnc(SCC(=O)N(C)C)c23)C1 (centres unmarked) [CBK305946],98.7386
25,CCc1c(C)nc2c(C(=O)NCc3cc(C)on3)cnn2c1C [CBK162150],120.612
26,O=C(CCc1c[nH]c2ccccc12)OCc1nnc(-c2ccccc2)o1 [CBK269642],75.3777
27,COc1ccc(OC)c2[nH]c(C(=O)N3CCCC34CC=CC4)cc12 [CBK282814],135.501

# Fetched by structure from the list above (3):
row,Structure (SMILES),% of control remaining [%]
12,O=C1CN(S(=O)(=O)c2ccc(NS(=O)(=O)c3ccc4ccccc4c3)cc2)CC(=O)N1 [CBK262513],122.42
19,CCOC(=O)[C@H]1CC[C@]2(CC1)CN(C)C(=O)c1ccccc1O2 [CBK284848],93.4923
5,Cn1cc(CN2CCCN(C(=O)c3cc4ccccc4[nH]3)CC2)cn1 [CBK304920],69.8061

# More structures

row,Structure (SMILES),% of control remaining [%]
1,O=C(CN1CCOCC1)Nc1ccc(Cl)cc1C(=O)c1ccccc1 [CBK086450],100
2,O=C(OCc1nc2cc3ccccc3cc2[nH]1)C1CCCCC1 [CBK018307],159.484
3,O=C(NCc1ccc(Cl)c(Cl)c1)N1CCCCC1CO (centres unmarked) [CBK156164],90.1856
4,O=C(c1ccc(F)cc1)N1CCN(c2ccccn2)CC1 [CBK287795],107.829
5,Cc1nn2c(=O)c(CCC(=O)O)c(C)[nH]c2c1-c1ccccc1 [CBK287011],143.912
6,CCN(CC)c1ccc(C(=O)Cn2c(=O)n(S(=O)(=O)c3ccc4ccccc4c3)c3ccccc32)cc1 [CBK106505],128.697
7,COc1cc(/C(CS(C)(=O)=O)=N\O)cc(OC)c1OC [CBK022984],117.048
8,Cc1nnc(CN(CC2CCCO2)C2CCCC2)n1C1CC1 (centres unmarked) [CBK304147],113.035
9,CN1CCN(C(=O)Cn2cccc(C(=O)Nc3ccc(F)cc3)c2=O)C(c2ccccc2)C1 (centres unmarked) [CBK286045],137.363
10,Cc1ccn(CCNC(=O)c2[nH]c3c(Cl)cccc3c2C)n1 [CBK282608],133.585
11,COc1cccc(C(=O)N2CCC(c3cc4ncccc4[nH]3)CC2)c1 [CBK283398],105.227
12,CC(NS(=O)(=O)Cc1ccccc1Cl)C(=O)N1CCCCC1 (centres unmarked) [CBK304928],102.962
13,CC(C)(C)c1ccc(OCC(O)Cn2c(CO)nc3ccccc32)cc1 (centres unmarked) [CBK293973],99.2978
14,O=C(c1nccs1)C1CCN(C(=O)c2cccs2)CC1 [CBK284159],83.6794
15,COC(=O)c1ccccc1NC(=O)COc1ccc(Br)c(C)c1 [CBK263152],115.254
16,O=C(O)CCC(=O)N1N=C2C(=Cc3ccc(F)cc3)CCCC2C1c1ccc(F)cc1 (centres unmarked) [CBK296066],138.818
17,CC(C)c1ccc(N2C(=O)N[C@@H]3CCN(C(=O)COc4ccccc4)[C@@H]3C2=O)cc1 [CBK289288],141.548
18,COc1cc(CNc2cc(C(=O)O)ccc2C)cc(Br)c1OC [CBK269679],134.432
19,COCc1nnc(NS(=O)(=O)c2ccc(C)cc2)s1 [CBK045523],128.261
20,CCOC(=O)C1CCN(S(=O)(=O)c2ccc(NC(=O)N3CCCC3)cc2)CC1 [CBK269823],117.145
21,CCCc1n[nH]c(Cc2c(Cl)cccc2Cl)c1C(=O)OCC [CBK113275],74.9612
22,Cc1ccc(C23CC4CC(CC(NC(=O)NC(Cc5ccccc5)C(=O)O)(C4)C2)C3)cc1 (centres unmarked) [CBK267423],131.565
23,CN(C)C(=O)c1cccc(-c2nccnc2NCc2cccc([N+](=O)[O-])c2)c1 [CBK036651],132.591
24,Cc1nn(CC(=O)OC2CCCCC2)c(=O)c2cc3sccc3n12 [CBK284045],149.338
25,COC(=O)c1cccc2c3c([nH]c12)CCCC3 [CBK000423],125.554
26,Cc1cccnc1NC(=S)NCc1ccco1 [CBK268907],100.614
